# Earlier results as cited in publication PMC10349193 (CPT: Pharmacometrics & Systems Pharmacology, 2023).
# Key:
# MDCK II = conditions: fluvoxamine file with reference compounds; ref SimCYP library version 19; cited from earlier work
# Caco-2 = conditions: pH 7.4: pH 7.4, Passive&Active; erythromycin file with reference compounds; ref SimCYP library version 19; cited from earlier work
compound,measurement,setting,value
CC(C)NCC(O)COc1ccc(CC(N)=O)cc1 (centres unmarked) [Atenolol],MDCK II Papp,MDCK II,0.26 10^-6 cm/s
same,Caco-2 Papp,Caco-2,1.91 10^-6 cm/s
